Assay results reported in patent US20230146455A1 (Yuyu Pharma, Inc., priority 2020, published 2023).

Columns and labels:
Type in all cases: cell-based, human
TNF-alpha = assay: Example 9 Luminex, LPS hPBMCs: TNF-alpha
Procedure: (§1) Treatment Human PBMCs were pretreated with YY-101, YDE-011 and YDE-043 or reference compound; Xiidra® at various concentration (ranging from 1 nM to 100 uM) for 2 h before stimulation. An equal volume of 0.5% DMSO was used as a vehicle control. Then, the cells were treated with LPS at 5 ug/ml. The supernatants from treated cells were harvested at 24 h and placed in a 96 well for Luminex cytokine & chemokine profiling using a Luminex 200 multiplex assay (Luminex; R&D system, USA).
(§2) The main study arm with triplicate wells per group in a 24-well plate: • 1. Blank • 2. PBMC: 0.5% DMSO • 3. PBMC+LPS (5 ug/ml) • 4. PBMC+YY-101 100 uM • 5. PBMC+YY-101 10 uM • 6. PBMC+YY-101 1 uM • 7. PBMC+YY-101 0.1 uM • 8. PBMC+YY-101 0.01 uM • 9. PBMC+LPS (5 ug/ml)+Xiidra®100 uM • 10. PBMC+LPS (5 ug/ml)+Xiidra® 10 uM • 11. PBMC+LPS (5 ug/ml)+Xiidra® 1 uM • 12. PBMC+LPS (5 ug/ml)+Xiidra®0.1 uM • 13. PBMC+LPS (5 ug/ml)+Xiidra®0.01 uM • 14. PBMC+LPS (5 ug/ml)+Xiidra®0.001 uM • 15. PBMC+LPS (5 ug/ml)+YY-101 100 uM • 16. PBMC+LPS (5 ug/ml)+YY-101 10 uM • 17. PBMC+LPS (5 ug/ml)+YY-101 1 uM • 18. PBMC+LPS (5 ug/ml)+YY-101 0.1 uM • 19. PBMC+LPS (5 ug/ml)+YY-101 0.01 uM • 20. PBMC+LPS (5 ug/ml)+YY-101 0.001 uM • 21. PBMC+LPS (5 ug/ml)+YDE-011 100 uM • 22. PBMC+LPS (5 ug/ml)+YDE-011 10 uM • 23. PBMC+LPS (5 ug/ml)+YDE-011 1 uM • 24. PBMC+LPS (5 ug/ml)+YDE-011 0.1 uM • 25. PBMC+LPS (5 ug/ml)+YDE-011 0.01 uM • 26. PBMC+LPS (5 ug/ml)+YDE-011 0.001 uM • 27. PBMC+LPS (5 ug/ml)+YDE-043 100 uM • 28. PBMC+LPS (5 ug/ml)+YDE-043 10 uM • 29. PBMC+LPS (5 ug/ml)+YDE-043 1 uM • 30. PBMC+LPS (5 ug/ml)+YDE-043 0.1 uM • 31. PBMC+LPS (5 ug/ml)+YDE-043 0.01 uM • 32. PBMC+LPS (5 ug/ml)+YDE-043 0.001 uM
(§3) Multiplex assay was used to measure 30 cytokines and chemokines. The 1:2, 1:10 and 1:200 diluted cell supernatant and serial dilution of the standard were dispensed into a 96 well plate at 50 ul/well. Then, the pre-mixed cocktail of antibody-coated magnetic beads was dispensed at 50 ul/well and incubated at room temperature for 2 h in a horizontal orbital microplate shaker at 800±500 rpm. The beads were washed using a magnetic device to prevent loss. The biotin-antibody was dispensed in 50 ul of each well and incubated at room temperature for 1 h in a shaker at 800±500 rpm. After washing, streptavidin-PE was added at 50 ul/well and incubated at room temperature for 30 min in a shaker under the same conditions. Finally, after washing, wash buffer (100 ul/well) was added to the plate and incubated in a shaker for 2 min. The Luminex™ 200 setting were set according to the manufacturer's protocol. The data was calculated with a standard five-parameter logistic nonlinear regression analysis of the data (xPonent software 4.2, USA). The levels of cytokine/chemokine are normalized to the live cell counts (1×10^5 cells/mL) and presented as concentrations per mL (pg/mL or ng/mL).

IL-1 alpha = assay: Example 9 Luminex, LPS hPBMCs: IL-1 alpha; conditions: Bead IL-1 alpha, replicates and Mean
Procedure: as §1, §2, §3

MMP-9 = assay: Example 9 Luminex, LPS hPBMCs: MMP-9
Procedure: as §1, §2, §3

IFN-gamma = assay: Example 9 Luminex, LPS hPBMCs: IFN-gamma
Procedure: as §1, §2, §3

[1] = PBMC + LPS(5 ug/ml) + test article 0.001 uM, Mean
[2] = PBMC + LPS(5 ug/ml) + test article 0.01 uM, Mean
[3] = PBMC + LPS(5 ug/ml) + test article 0.1 uM, Mean
[4] = PBMC + LPS(5 ug/ml) + test article 1 uM, Mean
[5] = PBMC + LPS(5 ug/ml) + test article 10 uM, Mean
[6] = PBMC + LPS(5 ug/ml) + test article 100 uM, Mean

## CC(C)C[C@H](NC(=O)[C@H](CCC(N)=O)NC(=O)CNC(=O)[C@@H]1C[C@@H](O)CN1)C(=O)NCC(=O)O [YDE-043] (H-[Hyp]GQLG-OH; N-terminus and C-terminus assumed)
TNF-alpha; [1]
  MFI, Bead name: TNF-alpha: 454.2
TNF-alpha; PBMC + LPS(5 ug/ml) + test article 0.001 uM, individual replicates (1st, 2nd, 3rd)
  MFI, Bead name: TNF-alpha: 428.5 and 481.0 and 453.0
TNF-alpha; [2]
  MFI, Bead name: TNF-alpha: 455.0
TNF-alpha; PBMC + LPS(5 ug/ml) + test article 0.01 uM, individual replicates (1st, 2nd, 3rd)
  MFI, Bead name: TNF-alpha: 440.0 and 453.5 and 471.5
TNF-alpha; [3]
  MFI, Bead name: TNF-alpha: 452.2
TNF-alpha; PBMC + LPS(5 ug/ml) + test article 0.1 uM, individual replicates (1st, 2nd, 3rd)
  MFI, Bead name: TNF-alpha: 430.5 and 457.0 and 469.0
TNF-alpha; [4]
  MFI, Bead name: TNF-alpha: 432.7
TNF-alpha; PBMC + LPS(5 ug/ml) + test article 1 uM, individual replicates (1st, 2nd, 3rd)
  MFI, Bead name: TNF-alpha: 456.0 and 391.0 and 451.0
TNF-alpha; [5]
  MFI, Bead name: TNF-alpha: 428.3
TNF-alpha; PBMC + LPS(5 ug/ml) + test article 10 uM, individual replicates (1st, 2nd, 3rd)
  MFI, Bead name: TNF-alpha: 404.0 and 429.0 and 452.0
TNF-alpha; [6]
  MFI, Bead name: TNF-alpha: 311.5
TNF-alpha; PBMC + LPS(5 ug/ml) + test article 100 uM, individual replicates (1st, 2nd, 3rd)
  MFI, Bead name: TNF-alpha: 330.0 and 293.0
IL-1 alpha; PBMC + LPS(5 ug/ml) + YDE043 0.001 uM
  MFI: 387.0 and 2522.0 and 412.0 and 1107.0
IL-1 alpha; PBMC + LPS(5 ug/ml) + YDE043 0.01 uM
  MFI: 405.0 and 391.5 and 429.0 and 408.5
IL-1 alpha; PBMC + LPS(5 ug/ml) + YDE043 0.1 uM
  MFI: 417.0 and 373.5 and 445.5 and 412.0
IL-1 alpha; PBMC + LPS(5 ug/ml) + YDE043 1 uM
  MFI: 394.5 and 378.0 and 386.5 and 386.3
IL-1 alpha; PBMC + LPS(5 ug/ml) + YDE043 10 uM
  MFI: 411.5 and 391.0 and 403.0 and 401.8
IL-1 alpha; PBMC + LPS(5 ug/ml) + YDE043 100 uM
  MFI: 543.0 and 488.5 and 515.8
MMP-9; PBMC + LPS(5 ug/ml) + 0.001 uM, Mean
  MMP-9 MFI: 47.7
MMP-9; PBMC + LPS(5 ug/ml) + 0.001 uM, single replicates
  MMP-9 MFI: 39.0 and 49.5 and 54.5
MMP-9; PBMC + LPS(5 ug/ml) + 0.01 uM, Mean
  MMP-9 MFI: 41.5
MMP-9; PBMC + LPS(5 ug/ml) + 0.01 uM, single replicates
  MMP-9 MFI: 40.5 and 41.5 and 42.5
MMP-9; PBMC + LPS(5 ug/ml) + 0.1 uM, Mean
  MMP-9 MFI: 39.5
MMP-9; PBMC + LPS(5 ug/ml) + 0.1 uM, single replicates
  MMP-9 MFI: 42.5 and 36.5 and 39.5
MMP-9; PBMC + LPS(5 ug/ml) + 1 uM, Mean
  MMP-9 MFI: 40.2
MMP-9; PBMC + LPS(5 ug/ml) + 1 uM, single replicates
  MMP-9 MFI: 43.5 and 36.5 and 40.5
MMP-9; PBMC + LPS(5 ug/ml) + 10 uM, Mean
  MMP-9 MFI: 42.0
MMP-9; PBMC + LPS(5 ug/ml) + 10 uM, single replicates
  MMP-9 MFI: 43.5 and 42.5 and 40.0
MMP-9; PBMC + LPS(5 ug/ml) + 100 uM, Mean
  MMP-9 MFI: 34.0
MMP-9; PBMC + LPS(5 ug/ml) + 100 uM, single replicates
  MMP-9 MFI: 35.5 and 32.5
IFN-gamma; [1]
  MFI (Bead name: IFN-gamma): 208.0
IFN-gamma; PBMC + LPS(5 ug/ml) + test article 0.001 uM, single replicates
  MFI (Bead name: IFN-gamma): 208.5 and 230.0 and 185.5
IFN-gamma; [2]
  MFI (Bead name: IFN-gamma): 202.8
IFN-gamma; PBMC + LPS(5 ug/ml) + test article 0.01 uM, single replicates
  MFI (Bead name: IFN-gamma): 207.0 and 190.0 and 211.5
IFN-gamma; [3]
  MFI (Bead name: IFN-gamma): 191.7
IFN-gamma; PBMC + LPS(5 ug/ml) + test article 0.1 uM, single replicates
  MFI (Bead name: IFN-gamma): 216.0 and 148.0 and 211.0
IFN-gamma; [4]
  MFI (Bead name: IFN-gamma): 205.8
IFN-gamma; PBMC + LPS(5 ug/ml) + test article 1 uM, single replicates
  MFI (Bead name: IFN-gamma): 175.0 and 201.0 and 241.5
IFN-gamma; [5]
  MFI (Bead name: IFN-gamma): 202.5
IFN-gamma; PBMC + LPS(5 ug/ml) + test article 10 uM, single replicates
  MFI (Bead name: IFN-gamma): 199.5 and 199.0 and 209.0
IFN-gamma; [6]
  MFI (Bead name: IFN-gamma): 106.5
IFN-gamma; PBMC + LPS(5 ug/ml) + test article 100 uM, single replicates
  MFI (Bead name: IFN-gamma): 111.0 and 102.0

Where “and” joins values, the source holds several entries; their conditions need not be identical. Equal entries are not always repeated. Where a SMILES comes first, the peptide text is derived from it. [ ]: non-standard residue; d: D form. Hyp = O=C(O)[C@@H]1C[C@@H](O)CN1
